Laboratory results: PubChem BioAssay AID1224826 (NIAID, 2016)
The whole screen tested about 17,000 reagents; shown is an unselected part. Of all reagents, about 1,110 (6.6%) were called active. 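Active means lowered or raised reporter signal; replicate intensities are raw and not normalised per plate.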 Unmarked entries are inactive. Further read-outs or replicates are left out here.

Purpose: 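Genes that change LPS-induced Tnf promoter activity in mouse macrophages when knocked down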 (primary screen)
Cell system: RAW264.7 G9 macrophages from mouse bearing reporters for p65 (GFP) and the Tnf promoter (mCherry)
Knock-down reagent: siRNA pool against mouse genes, 100 nM
Timing: 16 h of LPS stimulation, after 2 days of siRNA transfection
Conditions: bacterial lipopolysaccharide (Salmonella minnesota R595), 10 ng/ml
Measured: 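Nuclear mCherry signal of the Tnf promoter reporter measured by imaging after background removal, scaled to each plate median and turned into robust z-scores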
Direction: Tnf reporter robust z-score: higher = stronger Tnf promoter reporter signal after LPS
Hit rule: 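a well counts as active at a score of -1.3 or below (Tlr4 knock-down control median) or above 3 (raised signal); controls and wells holding fewer than 50 cells are excluded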
Calls: active = Tnf reporter clearly lowered or raised; inactive = no clear change in Tnf reporter

Depletion of Fbxo43 came out at: Tnf reporter robust z-score 2.98; fewer than 50 cells in well enough cells in well. Knock-down of Cpne5 came out at: Tnf reporter robust z-score 0.36; fewer than 50 cells in well enough cells in well. Depletion of Vmn1r26 resulted in: Tnf reporter robust z-score -0.5; fewer than 50 cells in well enough cells in well. With knock-down of R3hdm4 the results were Tnf reporter robust z-score 0.4; fewer than 50 cells in well enough cells in well. Grin2a scored Tnf reporter robust z-score 0.24; fewer than 50 cells in well enough cells in well. Knock-down of 1700006J14Rik gave: Tnf reporter robust z-score -0.42; fewer than 50 cells in well enough cells in well.

Pelp1 scored Tnf reporter robust z-score 0.21; fewer than 50 cells in well enough cells in well. Rtl6 showed Tnf reporter robust z-score -1.49 (active); fewer than 50 cells in well enough cells in well. Against Dcakd the deposit lists Tnf reporter robust z-score 0.26; fewer than 50 cells in well enough cells in well. After knock-down of Galr3, the screen gave Tnf reporter robust z-score -0.48; fewer than 50 cells in well enough cells in well. Prcp showed Tnf reporter robust z-score 0.05; fewer than 50 cells in well enough cells in well. Mrpl13 scored Tnf reporter robust z-score 0.11; fewer than 50 cells in well enough cells in well.
